The record followed here is article PMC11753365.

Chains of the proteins cited; added tags and fusions are not shown. Lines headed by an entry give the natural chain unless they say otherwise; changes in a name come on top.
UniProt Q9D112: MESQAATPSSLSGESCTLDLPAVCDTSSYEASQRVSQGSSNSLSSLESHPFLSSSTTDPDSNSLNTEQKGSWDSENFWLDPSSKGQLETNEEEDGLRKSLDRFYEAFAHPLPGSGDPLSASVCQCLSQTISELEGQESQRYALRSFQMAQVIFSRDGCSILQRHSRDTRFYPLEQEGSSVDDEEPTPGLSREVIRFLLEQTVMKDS

Results are given in words; binding and its absence hold for the method and conditions named. In cells and extracts the contact can be indirect. For part of these data: A result given as binding can be weak or reduced; the word gives no strength.

Assay [1] has as its target TwinStrep–HA–SHLD3. In words: pull-down; smaller-scale MagStrep-XT capture of tagged shieldin subunits from CH12-F3 lysates, beads boiled in Laemmli buffer, immunoblot (anti-STN1); cells mock-treated or irradiated; also cells pre-treated with the ATR inhibitor AZD6738 before irradiation. In general terms: Immunoblotting shows a protein as a band on a membrane.
Assay [2] addresses SHLD1^∆exon1 protein deleted of its first 59 amino acids (UniProt Q9D112). The description is as above.
Assay [3] deals with TwinStrep–HA–SHLD3. In words: condition: only cells pre-treated with the ATM inhibitor KU55933 before irradiation; pull-down; as a2, cells pre-treated for 1 h with the ATM inhibitor KU55933 before irradiation.

B1: Stn1 (protein, UniProt Q8K2X3 1-378)
chain: MPQPCLLMECESSPREEEIPPLFWGLDPVFLAFAKLYIKDILEMKESQQVPGTYFYNGHPIRRVDIMGAVISVKERETFYSYGVDDATGVINCVCWKKLSNAESSSDPAILSTARELSMTSQLKKLQETIEQKTRIGIGDIIRVRGSVRMFREEREICANIYYKVDDPVWNMQIARMLELPKLYQKVYDQPFRNPALQEEEALNNKDNLDLAGLTSLLSEKIKEFLQEKKMQSFYQQELETVESLQSLASRPVTHSTGSDQVELKDSGTSGVAQRVFKNALQLLQEKGLVFQRDSGSDKLYYVTTKDKDLQQKIYHIIKEDCQKPNHMEKGCHLLHILNCVHLNLRWDLSKAVLQRVLELLEDQSDIVSTADHYYAAF
Take B1: the results for the binding result in assay [1], in assay [2] and in assay [3] were “binds”, “binds” and “no binding”, respectively.
